In article PMC7862700 one finds binding signal data, which are given here for 40 sequences.

The other results are listed elsewhere or left out. Construct or isoform of the protein are uncertain.

The assay addresses T1, ETV4 (UniProt P43268).
T1 sequence: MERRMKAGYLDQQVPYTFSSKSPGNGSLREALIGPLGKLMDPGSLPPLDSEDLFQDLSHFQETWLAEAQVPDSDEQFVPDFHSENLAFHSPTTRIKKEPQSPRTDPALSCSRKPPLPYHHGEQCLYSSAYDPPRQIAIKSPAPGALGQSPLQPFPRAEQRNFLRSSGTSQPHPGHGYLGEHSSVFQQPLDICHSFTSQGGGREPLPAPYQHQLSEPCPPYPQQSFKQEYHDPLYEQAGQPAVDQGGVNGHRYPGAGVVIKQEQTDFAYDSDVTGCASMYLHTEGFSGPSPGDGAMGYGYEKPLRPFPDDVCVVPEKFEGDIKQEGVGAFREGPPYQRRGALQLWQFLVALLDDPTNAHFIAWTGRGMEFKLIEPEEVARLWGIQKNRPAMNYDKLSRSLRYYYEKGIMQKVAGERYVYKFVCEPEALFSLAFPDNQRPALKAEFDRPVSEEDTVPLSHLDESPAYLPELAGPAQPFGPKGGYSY
Briefly: DAPPL (digital affinity profiling via proximity ligation, sequencing). As to conditions: 10 mM Tris-HCl pH 7.5, 50 mM NaCl, 1 mM DTT, 4% glycerol, room temperature, 30 min; GST-TFs on glutathione beads, 16-mer random dsDNA library, 0.1% …; high values mean tight binding; double strand, one strand shown; scale: fold enrichment (6-mer frequency, TF over GST control).
With CTGTCT, the binding signal was determined as 1.45.

The sequence ATAACC showed a binding signal of 1.21.

For AGCCTT, the binding signal is 1.06.

As for ATGGTG, the binding signal was 1.08.

Take ATTCAC: the binding signal came to 1.28.

Sequence CCGAAA returned a binding signal of 1.14.

CCCCCT: the binding signal came out at 1.29.

Turning to AGCAAT, the binding signal is 1.1.

With TCTATT, the binding signal is 1.21.

TATAAA returned a binding signal of 1.24.

In turn, TTTGTC had a binding signal of 1.21.

TCACTG registered a binding signal of 1.23.

Sequence CCTGAC registered a binding signal of 1.58.

Turning to AGCTAT, the binding signal worked out at 1.16.

Turning to TTAATA, the binding signal was 1.16.

For the sequence TATCAA, the binding signal is 1.05.

With GCGTCC, the binding signal turned out to be 1.34.

On to GTGTTT, for which the binding signal turned out to be 1.1.

For TATATT, the binding signal amounted to 1.36.

Consider TCCGGT, for which the binding signal came out at 4.4.

Consider TGTCCT, for which the binding signal was found to be 1.52.

The sequence CTCCCC had a binding signal of 1.51.

GTGCTA gave a binding signal of 1.07.

CGTCTT displayed a binding signal of 1.49.

The sequence TATATC yielded a binding signal of 1.51.

On to ACTCCA, for which the binding signal stood at 1.19.

Sequence GTAATA had a binding signal of 1.23.

In turn, CCTTAA gave a binding signal of 1.31.

For the sequence TAGATG, the binding signal was determined as 1.25.

As to AGGGCT, the binding signal was determined as 1.02.

ATGGCA returned a binding signal of 1.24.

Take AAGCAA: the binding signal came to 1.02.

As to CTGTAC, the binding signal was 1.36.

In turn, ATTTCG displayed a binding signal of 1.18.

For TAGCCT, the binding signal is 1.28.

ACTGAT: the binding signal was found to be 1.25.

Sequence TGAAAT returned a binding signal of 0.936.

TTCTAT: the binding signal worked out at 1.41.

On to TCATCC, for which the binding signal was found to be 1.43.

CACGGA returned a binding signal of 1.
